The values that follow are results of earlier work, collected in publication PMC3264873 (Pharmaceutical Research, 2011).

SMILES strings stand for the structures.

The conditions of this data set: amprenavir recalculated from fosamprenavir data; ref [23]–[28]; cited from earlier work.

For the compound `CC(C)OC(=O)C(C)(C)Oc1ccc(C(=O)c2ccc(Cl)cc2)cc1` [Fenofibrate], the “Imax, maximum systemic plasma concentration of the inhibitor” value was 29.8 µM.
